# Data from the supplement of paper PMC10735217.
# The list shows a part of the results. Single values are uncertain here, since repeats match poorly.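 Human kidney-derived cells stably carry a construct in which eight TEAD-binding elements drive luciferase, measured by luminescence in a drug-repurposing library screen. A hit is any compound whose signal exceeds the plate mean by more than five robust Z scores.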
# System: HEK293A TEAD-LUC reporter
# Experiment: TEAD-luciferase reporter activity (YAP activation), robust Z score vs plate; higher = stronger YAP/TEAD activation
# Conditions: 24 h
SMILES,TEAD-luciferase reporter activity (compound concentration: 200 nM),TEAD-luciferase reporter activity (compound concentration: 2 uM),TEAD-luciferase reporter activity (compound concentration: 10 uM)
CC(=O)O[C@H]1C[C@H](O[C@H]2[C@@H](O)C[C@H](O[C@H]3[C@@H](O)C[C@H](O[C@H]4CC[C@@]5(C)[C@H](CC[C@@H]6[C@@H]5CC[C@]5(C)[C@@H](C7=CC(=O)OC7)[C@@H](O)C[C@]65O)C4)O[C@@H]3C)O[C@@H]2C)O[C@H](C)[C@H]1O[C@@H]1O[C@H](CO)[C@@H](O)[C@H](O)[C@H]1O,inactive: -0.282,inactive: -0.0851,active: 11.7
C[C@@H](NC(=O)[C@@H](N)Cc1ccc(O)cc1)C(=O)NCC(=O)N(C)[C@@H](Cc1ccccc1)C(=O)N[C@H](CO)CCS(C)=O (some centres undefined),inactive: 1.21,inactive: -0.831,inactive: -1.45
NCCCP(=O)(O)CC1CCCCC1,inactive: -0.778,,inactive: -0.264
NC(=O)OC[C@H](O)c1ccccc1Cl [Carisbamate],inactive: 0.564,inactive: -0.767,inactive: 0.393
CC(N)Cc1ccc(C(F)(F)F)cc1 (centres undefined),inactive: -1.1,inactive: 1.1,active: 5.03
Cc1c(Cl)cccc1S(=O)(=O)Nc1nc(CC(=O)N2CCN(C)CC2)cs1,inactive: 1.15,,inactive: 0.197
Clc1ccc(C23CNCC2C3)cc1Cl (centres undefined),inactive: -1.43,inactive: -1.64,inactive: -0.42
CCCCNC(=O)OCC(C)(CCC)COC(N)=O (centres undefined),inactive: -0.304,inactive: -1.05,inactive: 1.31
COc1ccccc1N1CCN(CCC(Oc2ccc(C(=O)c3cn(CCCC(=O)O)c4ccccc34)cc2)c2ccc(C)cc2)CC1 (centres undefined),inactive: -1.46,inactive: -0.97,inactive: -0.326
N#Cc1ccccc1-c1cc(-c2ccccn2)cn(-c2ccccc2)c1=O [perampanel],inactive: -0.477,inactive: -0.91,active: 8.08
CCOC(=O)CC(SP(=S)(OC)OC)C(=O)OCC (centres undefined) [Malathion],inactive: -0.446,inactive: -0.674,inactive: 1.65
Cn1c(/C=C/CO)c(CO)c2c1C(=O)C=C(N1CC1)C2=O,inactive: 0.803,inactive: -0.907,inactive: 0.596
OC(COC1CN2CCC1CC2)(c1ccccc1)C1CCCC1 (centres undefined) [Penethequinine],inactive: -1.11,inactive: -0.29,inactive: -1.23
CC1(C)CCC(C)(C)c2cc(C(=O)Nc3cc(F)c(C(=O)O)c(F)c3)c(O)cc21,inactive: -0.839,,inactive: 1.47

# 3 entries from above, sorted by count of non-hydrogen atoms, rising.
SMILES,TEAD-luciferase reporter activity (compound concentration: 200 nM),TEAD-luciferase reporter activity (compound concentration: 2 uM),TEAD-luciferase reporter activity (compound concentration: 10 uM)
NCCCP(=O)(O)CC1CCCCC1,inactive: -0.778,,inactive: -0.264
Cc1c(Cl)cccc1S(=O)(=O)Nc1nc(CC(=O)N2CCN(C)CC2)cs1,inactive: 1.15,,inactive: 0.197
COc1ccccc1N1CCN(CCC(Oc2ccc(C(=O)c3cn(CCCC(=O)O)c4ccccc34)cc2)c2ccc(C)cc2)CC1 (centres undefined),inactive: -1.46,inactive: -0.97,inactive: -0.326
